Data as given in PubChem BioAssay AID743454 (Peter MacCallum Cancer Centre, 2014)
In all, the deposit lists about 18,000 reagents; shown is a random part of them. 450 of them (2.5%) were called active. 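Single biological run; no consistent viability z cut-off exists, so the class columns, not z-scores, define the calls.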 Entries without a mark were called inactive.

Purpose: 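Search for knock-downs that restore vorinostat killing in resistant colon cancer cells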 (primary screen)
Cells: human HCT116-VR colon cancer cells, selected for vorinostat resistance
Knock-down reagent: siRNA pool against human genes, 40 nM siRNA pool
Duration: vorinostat for 24 h, read-out about 72 h after transfection
Challenge: vorinostat at 2.5 µM final
Detection: 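Cell viability by CellTiter-Fluor and caspase 3/7 activity by luminescence, each scaled to mock wells per plate, duplicates averaged, then robust z-scored over all plates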
Direction: viability robust z-score: higher = more viable cells than screen typical; caspase robust z-score: higher = more caspase 3/7 activity than screen typical
Hit rule: 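Hits are knock-downs in viability class RV1/RV2 or caspase class CA1/CA2, excluding ones that killed cells in the no-drug cell-count arm; hits then retested with single siRNAs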

| Gene | viability hit class | caspase hit class | viability robust z-score | caspase robust z-score |
| --- | --- | --- | --- | --- |
| CELF1 | no change | no change | -1.09 | -1.1 |
| HTR3D | no change | no change | 0.58 | -0.37 |
| COMMD7 | no change | no change | -1.08 | 0.34 |
| PAX9 | no change | no change | -2.75 | -0.64 |
| CRTAP | no change | no change | 0.3 | -0.12 |
| SLMAP | no change | no change | -0.9 | 1.84 |
| TLK1 | no change | no change | 0.48 | 1.44 |
| KLF12 | no change | no change | 1.95 | -0.5 |
| OR4A47 | no change | no change | 0.26 | 1.68 |
| SLC16A1 | no change | no change | 0.01 | -0.79 |
| PRRC2C | no change | no change | 1.22 | -0.36 |
| ZP1 | no change | no change | 0.8 | -0.11 |
| AARS1 | no change | no change | -0.16 | -0.57 |
| FOXM1 | no change | no change | 0.62 | 0.01 |
| RAB3C | no change | no change | -0.01 | -1 |
| DNAH1 | no change | no change | 0.08 | -0.38 |
| OR52J3 | no change | no change | -0.27 | 3.37 |
| OR51A2 | no change | no change | -2.04 | -1.19 |
| ZMAT4 | no change | no change | -0.64 | -0.35 |
| COX7B2 | no change | no change | 1.12 | -0.42 |
| MAML2 | no change | no change | -1.35 | 0.34 |
| KRT25 | no change | no change | -1.39 | -0.9 |
| GSX1 | no change | no change | -0.28 | -0.93 |
| RPUSD4 | no change | no change | -0.45 | -0.15 |
| AP4B1 | no change | no change | 1.22 | -0.86 |
| DPPA2 | no change | no change | 0.12 | 0.05 |
| MOB1B | no change | no change | -1.46 | -1.33 |
| SNX2 | no change | no change | -0.1 | -1.09 |
| FCGRT | no change | no change | 0.82 | 1.02 |
| MAGT1 | no change | no change | -0.56 | -0.74 |
| CHMP7 | no change | no change | -1.58 | -0.06 |
| CSDE1 | no change | no change | 1.15 | 0.3 |
| EPB41L4B | no change | no change | 0.26 | -0.57 |
| UBASH3B | no change | no change | 0.19 | -0.68 |
| ARV1 | no change | no change | 1.17 | -0.45 |
| GYS2 | no change | no change | -0.18 | -0.2 |
| SWT1 | no change | no change | -1.9 | 2.29 |
| ATP11C | no change | no change | 0.3 | -1.25 |
| SEMA3G | no change | no change | -0.13 | 1.22 |

Taken from above.
Under “viability robust z-score”, AARS1 reads -0.16
For “viability hit class”, RPUSD4 reads no change
FOXM1, viability robust z-score: 0.62
Entry of OR51A2 in “viability robust z-score”: -2.04
Value of UBASH3B under “viability hit class”: no change
AP4B1, caspase robust z-score = -0.86
